Some results were stated once for a whole list of compounds, not compound by compound.
Test: Remote loading of PARP inhibitors into liposomes (HPLC)
Type: physicochemical
Details: comparison of several PARP inhibitors

O=C(c1cc(Cc2n[nH]c(=O)c3ccccc23)ccc1F)N1CCN(C(=O)C2CC2)CC1 [Olaparib]
liposome remote loading efficiency: less than 30%

From patent US11890352B2, “Plectin-targeted liposomes/PARP inhibitor in the treatment of cancer” (University of Virginia Patent Foundation, priority 2018, dated 2024)
